No constants are given. Whether binding was seen depends on the method and setting. Binding seen in cells or lysates may run through a third protein. Some binding calls cover weakened binding; strength is not graded here.
Molecular target: T1, Silent mating type information regulation 2 homolog 1 (mouse (endogenous in BV-2)) (UniProt Q923E4)
T1 sequence: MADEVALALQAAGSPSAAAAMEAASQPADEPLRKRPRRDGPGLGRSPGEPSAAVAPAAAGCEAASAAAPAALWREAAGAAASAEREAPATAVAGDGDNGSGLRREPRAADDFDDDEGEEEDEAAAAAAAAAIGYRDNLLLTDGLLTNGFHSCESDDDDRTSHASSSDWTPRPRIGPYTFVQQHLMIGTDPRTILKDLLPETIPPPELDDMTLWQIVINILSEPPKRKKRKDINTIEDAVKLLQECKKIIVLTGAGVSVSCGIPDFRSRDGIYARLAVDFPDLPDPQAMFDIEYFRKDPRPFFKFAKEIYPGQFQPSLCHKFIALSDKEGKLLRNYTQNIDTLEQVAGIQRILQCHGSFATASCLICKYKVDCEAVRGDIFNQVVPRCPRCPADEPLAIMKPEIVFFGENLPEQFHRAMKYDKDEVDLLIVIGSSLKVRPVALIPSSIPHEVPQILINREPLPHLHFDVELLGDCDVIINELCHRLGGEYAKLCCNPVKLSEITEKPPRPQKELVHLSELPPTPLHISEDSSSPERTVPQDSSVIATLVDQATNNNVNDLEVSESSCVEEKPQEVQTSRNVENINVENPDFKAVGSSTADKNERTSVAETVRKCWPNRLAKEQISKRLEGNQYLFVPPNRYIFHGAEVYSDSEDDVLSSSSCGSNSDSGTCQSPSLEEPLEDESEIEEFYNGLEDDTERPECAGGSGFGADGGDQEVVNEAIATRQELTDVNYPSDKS
Test: co-IP; BV-2 cells transfected with KLF3-AS1 overexpression plasmid or vector; lysate in RIPA buffer incubated with Sirt1 antibody or USP22 antibody at 4 °C overnight, protein A/G Sepharose beads 4 h at 4 °C; western blot with anti-Sirt1 or anti-USP22

B1: Ubiquitin specific peptidase 22 (enzyme, UniProt Q5DU02 1-525)
chain: MVARPEPEVEAMDAELAVPPPGCSHLGSFKVDNWKQNLRAIYQCFVWSGTAEARKRKAKSCVCHVCGIHLNRLHSCLYCVFFGCFTKKHIHDHAKSKRHNLAIDLMYGGIYCFLCQDYIYDKDIEIIAKEEQRKAWKMQGVGEKFSTWEPTKRELELLKHNPKRRKITSNCTIGLRGLINLGNTCFMNCIVQALTHTPLLRDFFLSDRHRCEMQSPSSCLVCEMSSLFQEFYSGHRSPHIPYKLLHLVWTHARHLAGYEQQDAHEFLIAALDVLHRHCKGDDNGKKANNPNHCNCIIDQIFTGGLQSDVTCQVCHGVSTTIDPFWDISLDLPGSSTPFWPLSPGSEGSVVNGESHASGTTTLTDCLRRFTRPEHLGSSAKIKCSGCHSYQESTKQLTMKKLPIVACFHLKRFEHSAKLRRKITTYVSFPLELDMTPFMASSKESRMNGQYQQPLDSLNNDNKYSLFAVVNHQGTLESGHYTSFIRQHKDQWFKCDDAIITKASIKDVLDSEGYLLFYHKQFLEYE
  binding: binds
